For at least one compound, name, drawing or mass did not settle the structure.
What was measured:
[1] = test system: P. granulosum; assay: In vitro MIC testing, antibacterial spectrum of activity; format: cell-based; conditions: P. granulosum [clinical isolates] (3 isolates)
[2] = test system: S. haemolyticus; assay: as above; format: cell-based; conditions: S. haemolyticus (33 isolates)
[3] = test system: Streptococcus spp. [Group C]; assay: as above; format: cell-based; conditions: Streptococcus spp. [Group C] (30 isolates)
[4] = test system: S. epidermidis; assay: as above; format: cell-based, Staphylococcus epidermidis
[5] = test system: S. pneumoniae; assay: as above; format: cell-based, Streptococcus pneumoniae; conditions: S. pneumoniae [PSSP] (32 isolates)
[6] = test system: community-acquired methicillin-resistant S. aureus (MRSA-CA); assay: In vitro MIC against isolates of MRSA-CA; format: cell-based, Staphylococcus aureus; design: unit not given beside the values; conditions: MRSA-CA (33 isolates)
[7] = test system: hospital-associated methicillin-resistant S. aureus (MRSA-HA); assay: In vitro MIC against isolates of MRSA-HA; format: cell-based, Staphylococcus aureus; design: unit not given beside the values; conditions: MRSA-HA (33 isolates)
[8] = test system: methicillin-sensitive S. aureus (MSSA); assay: In vitro MIC against isolates of MSSA; format: cell-based, Staphylococcus aureus; design: unit not given beside the values; conditions: MSSA (34 isolates)
[9] = test system: E. faecium; assay: In vitro MIC testing, antibacterial spectrum of activity; format: cell-based; conditions: E. faecium [tetS] (4 isolates)
[10] = test system: P. mirabilis; assay: as above; format: cell-based; conditions: P. mirabilis (30 isolates)
[11] = test system: P. aeruginosa; assay: as above; format: cell-based; conditions: P. aeruginosa (11 isolates)
[12] = test system: bacterial protein synthesis (synthesis of reporter protein); assay: In vitro cell-free bacterial transcription and translation assay; format: biochemical; conditions: cell-free bacterial transcription and translation assay (Promega); read-out: IC50, inhibition of the synthesis of reporter protein
[13] = test system: Helicobacter pylori; conditions: H. pylori reference strain 3718, ATCC 43504; Clinical and Laboratory Standards Institute quality control range; cited from earlier work
[14] = test system: K. pneumoniae; assay: In vitro MIC testing, antibacterial spectrum of activity; format: cell-based; conditions: K. pneumoniae (31 isolates)

SMILES: CCC[C@@H]1C[C@@H](C(=O)N[C@@H]([C@H]2O[C@H](SC)[C@H](O)[C@@H](O)[C@H]2O)[C@H](C)Cl)N(C)C1 [Clindamycin]
- MIC Range [1]: ≦0.06-≦0.06
- MIC Range [2]: 0.06->32
- MIC Range [3]: ≦0.015->16
- MIC Range ([4]; S. epidermidis [MRSE] (32 isolates)): 0.06->32
- MIC Range ([4]; S. epidermidis [MSSE] (31 isolates)): ≦0.03->32
- MIC Range [5]: ≦0.015->16
- MIC Range [6]: 0.06->32
- MIC Range [7]: 0.06->32
- MIC Range [8]: 0.06->32

SMILES: C[C@H]1c2cccc(O)c2C(=O)C2=C(O)[C@]3(O)C(=O)C(C(N)=O)=C(O)[C@@H](N(C)C)[C@@H]3[C@@H](O)[C@@H]21 [Doxycycline, doxycycline]
- MIC Range [9]: ≦0.06-≦0.06
- MIC Range [5]: 0.03->16
- MIC Range [10]: 32->32
- MIC Range [11]: 4->32
- IC50 [12]: 4.7 ± 0.48 µM

SMILES: CN(C)[C@@H]1C(O)=C(C(N)=O)C(=O)[C@@]2(O)C(O)=C3C(=O)c4c(O)cccc4[C@@](C)(O)[C@H]3C[C@@H]12 [Tetracycline, tetracycline]
- MIC, CLSI Quality Control Range [13]: (0.12-1) μg/mL

SMILES: CN(C)c1ccc(O)c2c1C[C@H]1C[C@H]3[C@H](N(C)C)C(O)=C(C(N)=O)C(=O)[C@@]3(O)C(O)=C1C2=O [Minocycline, minocycline]
- MIC Range [14]: 1->32
- IC50 [12]: 2.4 ± 0.22 µM

From patent publication US20130302442A1, “METHODS OF USING (4S,4AS,5AR,12AS)-4-DIMETHYLAMINO-3,10,12,12A-TETRAHYDROXY-7-[(METHOXY(METHYL)AMINO)-METHYL]-1,11-DIOXO-1,4,4A,5,5A,6,11,12A-OCTAHYDRO-NAPHTHACENE-2-CARBOXYLIC ACID AMIDE” (priority 2012, published 2013)
